Measured values as given in PMC3731213.
Results are given in words; binding and its absence hold for the method and conditions named. Binding seen in cells or lysates may run through a third protein. Binding can be weak; no strength is given.

Chains of the proteins cited; added tags and fusions are not shown.
UniProt P20009: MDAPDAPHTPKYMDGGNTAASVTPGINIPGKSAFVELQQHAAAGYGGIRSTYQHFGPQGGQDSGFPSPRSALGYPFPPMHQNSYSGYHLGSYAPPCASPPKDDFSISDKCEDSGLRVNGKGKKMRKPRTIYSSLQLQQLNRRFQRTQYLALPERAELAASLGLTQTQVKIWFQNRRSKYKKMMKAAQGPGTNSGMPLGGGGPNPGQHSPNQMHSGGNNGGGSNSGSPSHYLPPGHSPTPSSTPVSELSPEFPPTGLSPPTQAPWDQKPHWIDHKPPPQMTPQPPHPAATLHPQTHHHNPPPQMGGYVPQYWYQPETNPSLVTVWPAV

Columns and labels:
[1] = biological target: Distal-less (DLL) (D. melanogaster) (UniProt P20009); experiment: pull-down; modified LUMIER/LuMPIS: one partner fused to MBP, the other to Renilla luciferase, each made in a purified prokaryotic in vitro expression system and then combined; IP buffer (150 mM NaCl, 50 mM Tris pH 7.4), 4°C, 2 h; MBP-tagged protein isolated on amylose resin blocked with 5 percent BSA; luciferase retained relative to unfused luc gives the luminescence intensity ratio (LIR), cutoff 7 for positive; each pair in both configurations; duplicates
[2] = biological target: Zif Zinc-finger protein (ZIF, also called CG10267) (D. melanogaster) (UniProt Q9VI24); experiment: as above

Substance | binding [1] | binding [2]
Zif Zinc-finger protein (ZIF, also called CG10267) (from UniProt Q9VI24) | binds | 
Distal-less (DLL) (from UniProt P20009 1-327) |  | binds
